In paper PMC11188199, “Development and validation of a generic methyltransferase enzymatic assay based on an SAH riboswitch” (SLAS discovery : advancing life sciences R & D, 2024):

Test system: AptaFluor detection reagents
Test: Tolerance of substrates and reagents in the AptaFluor SAH assay
Settings: 10 nM SAH

Row | Molecule | Tolerance (maximum concentration with < 10% change in assay signal)
1 | CCO [Ethanol] | 50%
2 | O=C(O)CN(CCOCCOCCN(CC(=O)O)CC(=O)O)CC(=O)O [EGTA] | 1 mM
3 | CO [Methanol] | 50%
4 | Triton X-100 | 0.10%
5 | O=C(O)CN(CCN(CC(=O)O)CC(=O)O)CC(=O)O [EDTA] | 1 mM
6 | Tween 20 | 0.50%
